# In PubChem BioAssay AID1347076 (National Center for Advancing Translational Sciences (NCATS), 2019):
# In all, about 400,000 compounds went through this assay and about 13,000 (3.2%) were called active. The shares of active, inactive and inconclusive entries below differ from those in the screen. The call rests on the fitted dose curve; in most records, active means well fitted cell-killing curve with a large enough effect; inconclusive means small, poorly fitted or top-dose-only effect, or effect the other way; inactive means flat fitted curve, though single readings scatter. Potencies of inconclusive entries are doubtful fits and often do not repeat.
# Experiment: qHTS assay for MDR1-selective chemotherapeutics: Primary screen using the drug-selected MDR subline cells KB-V1; further: nearly all actives have a fitted effect of over 60% in size
# Settings: KB-V1 MDR cells viability, CellTiter-Glo, 72 h; activity change, negative = cytotoxicity: at 46.1 µM (top of the series)
# In short: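 Readout: CellTiter-Glo luminescence, 10 min after addition. Cells: KB-V1 MDR subline, 72 h at 37 degrees C with compound. Analysis: corrected, normalized data fitted to concentration-effect curves.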
# On the % scale 0 is the no-effect control and ±100 the full control effect; potency means the concentration at half of the fitted maximal effect.
Structure (SMILES),Potency,"activity change, negative = cytotoxicity"
Cc1ccc(OCCOCCn2cnc3ccccc3c2=O)c([N+](=O)[O-])c1,"inconclusive: 18.4 µM [cytotoxic, single point]",
Cc1ncsc1C(=O)N1N=C2/C(=C/c3ccccc3)CCCC2C1c1ccccc1 (stereo unspecified),active: 20.6 µM,
CN1/C(=C\C(=O)c2oc3ccccc3c2N)C(C)(C)c2ccccc21,"inconclusive: 16.4 µM [cytotoxic, single point]",
Cn1cc(C(=O)NCCc2ccccc2)c(=O)c2cc(S(=O)(=O)N3CCCCCC3)ccc21,,inactive: -10.9%
COc1ccc(CNC(=O)CCc2c(C)nc3nc(CNC(=O)OC(C)(C)C)nn3c2C)cc1,"inconclusive: 16.4 µM [rising, single point]",
Cc1cc(C)cc(NS(=O)(=O)c2ccc(NC(=S)NC(=O)c3cccs3)cc2)c1,active: 2.91 µM,
O=C(CN1C(=O)NC2(CCOc3ccccc32)C1=O)c1ccc(Cl)s1 (stereo unspecified),"inconclusive: 4.61 µM [rising, full curve, poor fit]",
CNC(=O)NC(=O)COC(=O)CCc1nc(=O)c2ccccc2n1C,"inconclusive: 29.1 µM [rising, single point]",
c1csc(C(c2nnnn2C2CCCC2)N2CCCC3(CCCCC3)C2)c1 (stereo unspecified),"inconclusive: 18.4 µM [cytotoxic, single point]",
CCOc1ccc(NCc2nnc(SCc3ccc(Cl)cc3)n2-c2ccccc2)cc1,active: 4.61 µM,
CCCCNC(=O)C1(C)CCCCN1C(=O)c1ccc2sccc2c1 (stereo unspecified),,inactive: -3.79%
CN(CC(=O)O)S(=O)(=O)/C=C/c1ccccc1,"inconclusive: 20.6 µM [cytotoxic, single point]",
C/C(=N\NC(=O)CNC(=O)C(c1ccccc1)c1ccccc1)c1ccc(C(C)(C)C)cc1,,inactive: -15.6%
CCN1CCN(Cc2ccc(OCc3ccccc3)cc2)CC1,"inconclusive: 10.3 µM [cytotoxic, partial curve, poor fit]",
COc1ccccc1-c1noc(-c2ccc(NCc3cccnc3)c([N+](=O)[O-])c2)n1,,inactive: -2.93%
O=C(CN1C(=O)CC(c2ccco2)Sc2ccccc21)Nc1ccc(Br)cc1 (stereo unspecified),"inconclusive: 7.31 µM [cytotoxic, partial curve]",
CCN1CCN(C(c2ccccn2)c2c(NC(=O)c3ccccc3)sc(C)c2C)CC1 (stereo unspecified),"inconclusive: 9.2 µM [cytotoxic, partial curve]",
O=C(c1ccco1)N1N=C(c2ccc(Br)cc2)CC1c1ccco1 (stereo unspecified),,inactive: 29.1%
COc1ccc(CCN(C)C(=O)CN2C(=O)NC3(CCCCCC3)C2=O)cc1OC,"inconclusive: 18.4 µM [cytotoxic, single point]",
CCN(Cc1ccccc1)C1CCN(Cc2ccc(SC)cc2)CC1,"inconclusive: 13 µM [cytotoxic, partial curve]",
C=CCn1cnc2c(c1=O)c1nc3ccccc3nc1n2/N=C/c1cccc(OC)c1,,inactive: 21%
Cc1occc1-c1nnc(SCC(=O)NCc2cccs2)n1-c1ccc(F)cc1,"inconclusive: 23.1 µM [cytotoxic, single point]",
CN(C)c1ncnc2c1ncn2C1CCCCO1 (stereo unspecified),"inconclusive: 3.66 µM [rising, full curve, poor fit]",

# 3 entries picked at random from the list so far, as already listed:
Structure (SMILES),Potency,"activity change, negative = cytotoxicity"
CN(C)c1ncnc2c1ncn2C1CCCCO1 (stereo unspecified),"inconclusive: 3.66 µM [rising, full curve, poor fit]",
c1csc(C(c2nnnn2C2CCCC2)N2CCCC3(CCCCC3)C2)c1 (stereo unspecified),"inconclusive: 18.4 µM [cytotoxic, single point]",
CCCCNC(=O)C1(C)CCCCN1C(=O)c1ccc2sccc2c1 (stereo unspecified),,inactive: -3.79%

# Additional records.

Structure (SMILES),Potency,"activity change, negative = cytotoxicity"
CCN(CC)CCOC(=O)C(Cc1ccco1)Cc1cccc2ccccc12 (stereo unspecified),,inactive: 16.1%
CCCOc1ccccc1C1CC(=O)NC2=C1C(=O)CCC2 (stereo unspecified),"inconclusive: 20.6 µM [cytotoxic, single point]",
Cc1ccc(NC2=CC(=O)CCC2)cc1C,"inconclusive: 0.517 µM [rising, partial curve]",
O=C(c1cccs1)N(c1cccc(Cl)c1)C1C=CS(=O)(=O)C1 (stereo unspecified),,inactive: -18.1%
Cc1ccc(CSCC(=O)Nc2ccc3c(c2)OCO3)cc1,"inconclusive: 29.1 µM [cytotoxic, partial curve, poor fit]",
O=c1[nH]c(CSc2nc3ccccc3s2)nc2ccccc12,,inactive: 5.88%
COc1ccc(OCC(=O)Nc2ccc(N3CCOCC3)c(Cl)c2)cc1,"inconclusive: 14.6 µM [cytotoxic, partial curve, poor fit]",
CCn1c(CCNC(=O)c2ccco2)nc2ccccc21,"inconclusive: 29.1 µM [cytotoxic, partial curve, poor fit]",
Clc1ccccc1Nc1nc(-c2cccnc2)cs1,"inconclusive: 29.1 µM [cytotoxic, single point]",
N=c1c2c(-c3ccccc3)c(-c3ccccc3)n(Cc3ccco3)c2ncn1CCCN1CCOCC1,active: 20.6 µM,
O=C(NCc1ccc(Cl)cc1)c1cc2c(nc3sccn32)s1,"inconclusive: 29.1 µM [cytotoxic, single point]",
COCCCC/C(=N\OCCN)c1ccc(C(F)(F)F)cc1,"inconclusive: 10.3 µM [cytotoxic, partial curve]",
O=c1cc(CSc2ccc(Cl)cc2)nc(-c2ccccn2)[nH]1,,inactive: -0.241%
CCN(CC)c1ccc(NC(=O)CN2C(=O)CSc3ncccc32)c(C)c1,"inconclusive: 2.91 µM [cytotoxic, full curve]",
CCOC(=O)C(=NO)C1=CSC2=NNC(C)(C)N12,"inconclusive: 29.1 µM [cytotoxic, single point]",
Cc1cc(C(=O)COC(=O)c2ccc(NC(=O)CC#N)cc2)c(C)n1CC(F)(F)F,,inactive: 4.86%
COc1ccc(OCc2n(CC(=O)OC3CC(C)CCC3C(C)C)c3ccccc3[n+]2C)cc1 (stereo unspecified),"inconclusive: 29.1 µM [rising, single point]",
COc1ccc(-c2csc(C(C)(O)c3ccc(F)c(F)c3)n2)cc1 (stereo unspecified),,inactive: 16.2%
O=C(Nc1cc(-c2nc3cc(Cl)ccc3o2)ccc1Cl)c1cc2ccccc2o1,,inconclusive: 0%
Cc1nn(CCc2nn[nH]n2)c2nc(-c3ccc(C4CCCCC4)cc3)cc(C(F)(F)F)c12,,inactive: -32.3%
C=CCOC(=O)C(C#N)c1nc2ccccc2nc1N1CCN(c2ccccc2OCC)CC1 (stereo unspecified),,inactive: -9.76%
OC(COC1CCCCC1)CN1CCN(c2ccccc2)CC1 (stereo unspecified),"inconclusive: 23.1 µM [cytotoxic, partial curve, poor fit]",
COc1cc(C)c(N(C(C)=O)c2ccccc2)c(C)c1,"inconclusive: 14.6 µM [cytotoxic, partial curve, poor fit]",
